Where a chain is given by its changes, count along the chain named. The entries are a selection whose mix differs from that of the whole data set. Calls are pooled over several reports, among them a noisy single-well screen. The list shows a part of the results.
Assays:
Details in all cases: stereoisomer not certain
O51G1 = test system: T1, O51G1
T1 sequence (whole entry): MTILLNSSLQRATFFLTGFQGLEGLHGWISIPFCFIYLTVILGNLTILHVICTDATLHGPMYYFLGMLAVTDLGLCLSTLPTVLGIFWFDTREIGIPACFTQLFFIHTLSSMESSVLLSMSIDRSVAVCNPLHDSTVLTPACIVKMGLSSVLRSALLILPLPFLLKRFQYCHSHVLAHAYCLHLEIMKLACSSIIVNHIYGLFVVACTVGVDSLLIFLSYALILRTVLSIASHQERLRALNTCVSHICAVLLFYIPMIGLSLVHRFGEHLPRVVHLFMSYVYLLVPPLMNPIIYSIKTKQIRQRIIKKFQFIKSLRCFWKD
Method in brief: (§1)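 Transient luciferase assays in mammalian cell lines were common, though methods varied by source. The values come from published papers and their supplementary material, with extra details from the original authors when needed. Responsive refers to a measured signal the original authors judged statistically different from baseline, and non-responsive (inactive) to the remainder.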

Chains of the proteins cited; added tags and fusions are not shown. A line that says so, or that is headed by a name, gives the form on record, which may keep a tag or linker.
O52E2, as listed by the source: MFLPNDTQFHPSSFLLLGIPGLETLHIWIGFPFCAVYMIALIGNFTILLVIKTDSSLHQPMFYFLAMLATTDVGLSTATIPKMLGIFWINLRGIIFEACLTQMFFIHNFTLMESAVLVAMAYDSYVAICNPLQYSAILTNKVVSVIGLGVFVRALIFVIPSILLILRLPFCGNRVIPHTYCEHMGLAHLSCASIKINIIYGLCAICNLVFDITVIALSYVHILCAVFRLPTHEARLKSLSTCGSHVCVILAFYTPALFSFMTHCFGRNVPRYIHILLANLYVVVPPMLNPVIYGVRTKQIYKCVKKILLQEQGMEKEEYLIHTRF
O52E4, as listed by the source: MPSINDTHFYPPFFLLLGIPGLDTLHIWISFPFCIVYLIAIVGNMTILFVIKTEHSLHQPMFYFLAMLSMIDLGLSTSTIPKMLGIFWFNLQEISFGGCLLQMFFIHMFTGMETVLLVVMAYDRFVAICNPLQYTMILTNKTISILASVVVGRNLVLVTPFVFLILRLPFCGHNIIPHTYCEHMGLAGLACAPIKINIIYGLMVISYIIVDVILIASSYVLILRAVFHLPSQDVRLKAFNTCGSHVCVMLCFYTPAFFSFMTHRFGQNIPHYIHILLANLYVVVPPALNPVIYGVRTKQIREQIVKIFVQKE
O52E1, as listed by the source: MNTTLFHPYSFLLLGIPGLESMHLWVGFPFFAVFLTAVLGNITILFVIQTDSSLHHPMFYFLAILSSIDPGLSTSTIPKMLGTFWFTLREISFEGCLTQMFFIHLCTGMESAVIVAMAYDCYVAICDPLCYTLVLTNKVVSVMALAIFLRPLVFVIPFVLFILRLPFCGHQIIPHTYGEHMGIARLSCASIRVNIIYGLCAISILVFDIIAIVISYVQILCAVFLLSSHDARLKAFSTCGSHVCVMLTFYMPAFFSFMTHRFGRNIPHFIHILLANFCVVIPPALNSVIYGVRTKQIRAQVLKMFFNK
O52E5, as listed by the source: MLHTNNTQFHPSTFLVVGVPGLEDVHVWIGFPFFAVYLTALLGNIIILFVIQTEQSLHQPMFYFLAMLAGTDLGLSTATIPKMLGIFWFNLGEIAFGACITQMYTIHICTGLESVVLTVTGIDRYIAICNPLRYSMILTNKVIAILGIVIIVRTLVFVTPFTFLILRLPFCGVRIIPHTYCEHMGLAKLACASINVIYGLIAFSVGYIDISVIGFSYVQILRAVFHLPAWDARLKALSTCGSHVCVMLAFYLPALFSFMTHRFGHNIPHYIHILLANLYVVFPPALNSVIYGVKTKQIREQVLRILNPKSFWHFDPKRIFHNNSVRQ
O52E8, as listed by the source: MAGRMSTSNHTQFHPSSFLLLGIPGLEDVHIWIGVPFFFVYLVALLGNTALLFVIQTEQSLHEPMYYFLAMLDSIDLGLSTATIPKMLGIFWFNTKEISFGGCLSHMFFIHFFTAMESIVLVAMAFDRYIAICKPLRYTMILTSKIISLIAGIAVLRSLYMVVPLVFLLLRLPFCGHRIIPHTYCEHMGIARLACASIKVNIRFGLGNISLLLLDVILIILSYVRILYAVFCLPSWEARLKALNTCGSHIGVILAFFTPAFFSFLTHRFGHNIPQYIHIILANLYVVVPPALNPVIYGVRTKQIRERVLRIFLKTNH
O51L1, as listed by the source: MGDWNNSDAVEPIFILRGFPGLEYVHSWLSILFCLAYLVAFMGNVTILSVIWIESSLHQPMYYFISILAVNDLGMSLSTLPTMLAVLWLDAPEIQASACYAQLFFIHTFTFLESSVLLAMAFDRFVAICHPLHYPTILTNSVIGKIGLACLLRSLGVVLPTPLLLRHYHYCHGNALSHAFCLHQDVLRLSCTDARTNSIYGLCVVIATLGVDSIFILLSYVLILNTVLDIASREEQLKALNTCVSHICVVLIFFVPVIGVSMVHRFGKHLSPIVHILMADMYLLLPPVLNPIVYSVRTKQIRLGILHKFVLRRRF
O51V1, as listed by the source: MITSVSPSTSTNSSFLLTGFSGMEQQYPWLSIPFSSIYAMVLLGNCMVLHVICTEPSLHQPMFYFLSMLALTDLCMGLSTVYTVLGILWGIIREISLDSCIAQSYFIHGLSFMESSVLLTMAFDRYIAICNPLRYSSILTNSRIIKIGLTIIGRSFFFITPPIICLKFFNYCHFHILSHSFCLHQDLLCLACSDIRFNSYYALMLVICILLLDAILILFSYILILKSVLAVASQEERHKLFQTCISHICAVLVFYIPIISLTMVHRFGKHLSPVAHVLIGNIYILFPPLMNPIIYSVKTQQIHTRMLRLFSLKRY

O51G2 = test system: T2, O51G2
T2 sequence (whole entry): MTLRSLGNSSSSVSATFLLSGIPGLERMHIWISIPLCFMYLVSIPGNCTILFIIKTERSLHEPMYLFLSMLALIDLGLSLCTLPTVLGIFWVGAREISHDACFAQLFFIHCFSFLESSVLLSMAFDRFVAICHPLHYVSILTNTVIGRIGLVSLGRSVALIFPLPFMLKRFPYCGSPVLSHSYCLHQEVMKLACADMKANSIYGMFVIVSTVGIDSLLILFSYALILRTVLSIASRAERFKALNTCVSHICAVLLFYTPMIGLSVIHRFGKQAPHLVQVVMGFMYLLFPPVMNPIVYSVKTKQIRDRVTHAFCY
Method in brief: as §1

O51J1 = test system: T3, O51J1
T3 sequence (whole entry): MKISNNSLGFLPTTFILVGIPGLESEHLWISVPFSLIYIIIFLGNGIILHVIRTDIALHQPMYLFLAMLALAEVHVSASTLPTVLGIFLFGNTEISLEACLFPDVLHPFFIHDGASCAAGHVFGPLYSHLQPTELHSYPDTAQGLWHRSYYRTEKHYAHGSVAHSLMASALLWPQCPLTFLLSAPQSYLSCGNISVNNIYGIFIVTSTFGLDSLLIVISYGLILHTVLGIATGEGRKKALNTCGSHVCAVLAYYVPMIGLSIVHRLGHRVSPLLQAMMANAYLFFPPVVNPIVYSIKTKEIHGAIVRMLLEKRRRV
Method in brief: as §1

O51L1 [1] = test system: T4, O51L1
T4 sequence (whole entry): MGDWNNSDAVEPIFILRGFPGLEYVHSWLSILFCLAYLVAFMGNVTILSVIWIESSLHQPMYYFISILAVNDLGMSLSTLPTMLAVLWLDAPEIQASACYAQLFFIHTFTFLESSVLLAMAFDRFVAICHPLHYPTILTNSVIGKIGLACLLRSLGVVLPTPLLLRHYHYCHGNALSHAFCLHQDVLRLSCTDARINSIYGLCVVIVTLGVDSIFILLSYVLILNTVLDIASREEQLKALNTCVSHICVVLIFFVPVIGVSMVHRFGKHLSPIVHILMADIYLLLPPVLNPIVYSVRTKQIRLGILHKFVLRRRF
Method in brief: as §1

O51L1 [2] = test system: T5, O51L1; remark: listed apart in the source
T5 sequence (whole entry): T4 sequence (whole entry) with I196T, V207A, I281M
Method in brief: as §1

O51M1 = test system: T6, O51M1
T6 sequence (whole entry): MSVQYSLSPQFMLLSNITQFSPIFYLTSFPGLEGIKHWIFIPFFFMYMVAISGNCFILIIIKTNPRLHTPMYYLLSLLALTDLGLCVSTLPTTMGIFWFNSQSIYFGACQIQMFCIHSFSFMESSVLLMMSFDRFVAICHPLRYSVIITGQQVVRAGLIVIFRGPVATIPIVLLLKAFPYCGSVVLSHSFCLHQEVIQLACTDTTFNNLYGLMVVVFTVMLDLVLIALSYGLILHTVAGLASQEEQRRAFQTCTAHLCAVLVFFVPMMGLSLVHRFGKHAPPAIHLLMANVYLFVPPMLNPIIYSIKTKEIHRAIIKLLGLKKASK
Method in brief: as §1

O51Q1 = test system: T7, O51Q1
T7 sequence (whole entry): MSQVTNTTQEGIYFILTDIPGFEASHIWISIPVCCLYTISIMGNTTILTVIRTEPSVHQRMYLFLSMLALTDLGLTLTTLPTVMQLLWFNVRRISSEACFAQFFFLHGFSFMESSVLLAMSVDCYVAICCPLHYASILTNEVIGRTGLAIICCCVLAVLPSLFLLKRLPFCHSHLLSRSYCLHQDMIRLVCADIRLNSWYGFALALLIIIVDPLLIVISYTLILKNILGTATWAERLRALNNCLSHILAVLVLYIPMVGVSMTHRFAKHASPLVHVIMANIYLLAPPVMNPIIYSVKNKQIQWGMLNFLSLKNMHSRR
Method in brief: as §1

O51T1 = test system: T8, O51T1
T8 sequence (whole entry): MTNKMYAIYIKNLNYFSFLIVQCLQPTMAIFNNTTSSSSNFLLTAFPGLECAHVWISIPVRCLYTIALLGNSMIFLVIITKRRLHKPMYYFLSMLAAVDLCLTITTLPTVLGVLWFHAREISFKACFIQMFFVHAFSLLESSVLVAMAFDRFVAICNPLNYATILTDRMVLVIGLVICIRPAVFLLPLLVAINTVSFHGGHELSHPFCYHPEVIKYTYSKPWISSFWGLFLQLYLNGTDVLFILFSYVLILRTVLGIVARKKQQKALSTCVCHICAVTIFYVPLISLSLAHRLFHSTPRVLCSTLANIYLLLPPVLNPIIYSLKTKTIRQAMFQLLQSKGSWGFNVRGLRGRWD
Method in brief: as §1

O51V1 [3] = test system: T9, O51V1
T9 sequence (whole entry): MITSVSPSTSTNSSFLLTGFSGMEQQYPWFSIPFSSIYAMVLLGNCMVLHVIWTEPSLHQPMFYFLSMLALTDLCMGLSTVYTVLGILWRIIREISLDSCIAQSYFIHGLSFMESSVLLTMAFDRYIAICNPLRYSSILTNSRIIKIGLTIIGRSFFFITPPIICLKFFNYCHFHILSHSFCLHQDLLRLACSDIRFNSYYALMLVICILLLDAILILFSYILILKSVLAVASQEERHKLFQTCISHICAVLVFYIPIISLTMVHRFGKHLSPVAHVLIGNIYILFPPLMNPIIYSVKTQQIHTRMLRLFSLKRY
Method in brief: as §1

O51V1 [4] = test system: T10, O51V1; remark: listed apart in the source
T10 sequence (whole entry): T9 sequence (whole entry) with F30L, W53C, R90G, R189C
Method in brief: as §1

O52A1 = test system: T11, O52A1
T11 sequence (whole entry): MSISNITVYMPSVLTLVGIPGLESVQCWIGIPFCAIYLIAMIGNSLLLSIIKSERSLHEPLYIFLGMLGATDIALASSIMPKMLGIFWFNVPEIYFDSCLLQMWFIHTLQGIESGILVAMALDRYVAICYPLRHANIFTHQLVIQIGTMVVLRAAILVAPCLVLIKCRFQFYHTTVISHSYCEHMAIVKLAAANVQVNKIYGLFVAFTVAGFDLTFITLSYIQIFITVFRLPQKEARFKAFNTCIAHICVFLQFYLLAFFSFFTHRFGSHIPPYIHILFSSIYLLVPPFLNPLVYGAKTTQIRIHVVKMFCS
Method in brief: as §1

O52B2 = test system: T12, O52B2
T12 sequence (whole entry): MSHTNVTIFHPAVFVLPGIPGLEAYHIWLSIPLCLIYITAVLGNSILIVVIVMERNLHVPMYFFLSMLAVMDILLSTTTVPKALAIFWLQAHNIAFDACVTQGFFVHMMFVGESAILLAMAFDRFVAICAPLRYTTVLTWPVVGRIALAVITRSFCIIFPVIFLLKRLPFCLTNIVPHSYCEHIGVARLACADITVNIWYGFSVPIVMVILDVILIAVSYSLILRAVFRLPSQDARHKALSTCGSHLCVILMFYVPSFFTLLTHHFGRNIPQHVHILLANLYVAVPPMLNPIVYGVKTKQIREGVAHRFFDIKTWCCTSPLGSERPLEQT
Method in brief: as §1

O52B6 = test system: T13, O52B6
T13 sequence (whole entry): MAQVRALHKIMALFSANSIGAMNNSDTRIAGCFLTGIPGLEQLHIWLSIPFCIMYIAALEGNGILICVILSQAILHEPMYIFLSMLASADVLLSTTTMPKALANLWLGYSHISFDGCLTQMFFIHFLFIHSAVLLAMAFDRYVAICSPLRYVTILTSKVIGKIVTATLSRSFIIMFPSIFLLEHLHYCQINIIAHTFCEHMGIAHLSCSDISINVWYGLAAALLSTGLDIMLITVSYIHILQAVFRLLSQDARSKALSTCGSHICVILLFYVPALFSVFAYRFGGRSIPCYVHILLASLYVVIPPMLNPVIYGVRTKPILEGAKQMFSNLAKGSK
Method in brief: as §1

O52E1 = test system: O52E1
Method in brief: as §1

O52E2 = test system: O52E2
Method in brief: as §1

O52E4 = test system: O52E4
Method in brief: as §1

O52E5 = test system: O52E5
Method in brief: as §1

O52E8 = test system: O52E8
Method in brief: as §1

O52I2 = test system: T14, O52I2
T14 sequence (whole entry): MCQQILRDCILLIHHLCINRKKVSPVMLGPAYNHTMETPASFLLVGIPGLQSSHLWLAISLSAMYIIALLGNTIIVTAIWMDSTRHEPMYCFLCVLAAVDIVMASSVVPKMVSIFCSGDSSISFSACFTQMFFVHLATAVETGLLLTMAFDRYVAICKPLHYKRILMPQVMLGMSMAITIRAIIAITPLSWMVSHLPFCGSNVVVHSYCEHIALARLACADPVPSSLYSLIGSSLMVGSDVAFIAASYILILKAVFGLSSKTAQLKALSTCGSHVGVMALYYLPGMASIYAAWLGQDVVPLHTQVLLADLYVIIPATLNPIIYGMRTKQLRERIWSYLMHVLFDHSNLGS
Method in brief: as §1

O52H1 = test system: T15, O52H1
T15 sequence (whole entry): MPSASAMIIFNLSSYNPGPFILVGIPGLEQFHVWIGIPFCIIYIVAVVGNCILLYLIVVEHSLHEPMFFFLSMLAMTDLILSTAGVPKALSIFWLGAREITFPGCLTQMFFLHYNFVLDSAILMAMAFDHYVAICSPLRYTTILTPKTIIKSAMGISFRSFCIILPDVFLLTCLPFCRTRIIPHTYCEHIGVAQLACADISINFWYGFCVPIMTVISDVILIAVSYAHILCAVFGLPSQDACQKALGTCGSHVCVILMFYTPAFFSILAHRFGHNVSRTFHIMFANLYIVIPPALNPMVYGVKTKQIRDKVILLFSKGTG
Method in brief: as §1

Measured: odorant receptor agonist call

CC(=O)OCC=C(C)CCC=C(C)C
active: O51M1 | O51V1 [4] | O52E4 | O52E5
not listed: O52H1
inactive: all other assays above

CC(C)(O)CCCC1=CCC(C=O)CC1 (stereo not given)
inactive: O51J1 | O51M1 | O51V1 [3] | O51V1 [4] | O52E4 | O52E5

c1cnccn1
not listed: O52H1
inactive: all other assays above

C=CCc1ccc(OC)c(OC)c1
active: O51M1 | O52E4 | O52E5
not listed: O52H1
inactive: all other assays above

C=C(C)C1CCC2=CC(=O)CC(C)C2(C)C1 (stereo not given)
active: O51J1 | O51M1 | O51V1 [3] | O51V1 [4] | O52E4 | O52E5

CCCCO
not listed: O52H1
inactive: all other assays above

CC1=NC(C)SC1C (stereo not given)
not listed: O51J1 | O51M1 | O51V1 [3] | O51V1 [4] | O52E5 | O52H1
inactive: all other assays above

COc1ccccc1O
active: O51M1 | O52E4 | O52E5
not listed: O52H1
inactive: all other assays above

CC(C)CCC(=O)O
active: O51L1 [2]
not listed: O52H1
inactive: all other assays above

COc1cc(C)ccc1O
not listed: O52H1
inactive: all other assays above

C=CCSCC=C
active: O51M1 | O52E5
not listed: O52H1
inactive: all other assays above

CCCCCOC(C)=O
not listed: O52H1
inactive: all other assays above

CC12C=CCC1C1CCC3CC(=O)CCC3(C)C1CC2 (stereo not given)
active: O51G2 | O51Q1 | O52A1 | O52B2 | O52E2
not listed: O52E8
inactive: all other assays above

COc1cc(C=O)ccc1O
not listed: O52H1
inactive: all other assays above
